One molecule from paper PMC6361937 can be followed below.

By UniProt entry, the sequences of proteins in these tests, tags left out. Where a name states a change or a piece, a line headed by the entry shows the natural chain unless it says otherwise.
UniProt P27017: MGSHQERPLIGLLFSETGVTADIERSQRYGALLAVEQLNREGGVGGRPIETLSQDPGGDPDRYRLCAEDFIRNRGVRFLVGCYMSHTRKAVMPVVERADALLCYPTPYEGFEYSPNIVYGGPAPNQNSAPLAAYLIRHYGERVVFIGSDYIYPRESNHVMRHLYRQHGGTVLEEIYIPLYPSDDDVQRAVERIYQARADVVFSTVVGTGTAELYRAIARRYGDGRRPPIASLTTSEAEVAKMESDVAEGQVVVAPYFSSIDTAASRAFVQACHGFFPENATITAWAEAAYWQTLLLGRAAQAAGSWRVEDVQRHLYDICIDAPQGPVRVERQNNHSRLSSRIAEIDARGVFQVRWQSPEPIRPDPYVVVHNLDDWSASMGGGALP
UniProt P20366: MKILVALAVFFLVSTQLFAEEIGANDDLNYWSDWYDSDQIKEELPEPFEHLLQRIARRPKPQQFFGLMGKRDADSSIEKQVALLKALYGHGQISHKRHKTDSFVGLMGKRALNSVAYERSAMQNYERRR

No constants are given. Whether binding was seen depends on the method and setting.

For the test, the target named is amidase AmiC (UniProt P27017). In words: MST; RED-NHS labelled AmiC at 31 nM final, increasing concentrations of SP; 50 mM Tris-HCl pH 7.5, 150 mM NaCl, 10 mM MgCl2, 0.05% Tween-20; 25 °C; Monolith NT.115Pico; both purified.

In the case of RPKPQQFFGLM (peptide, UniProt P20366 58-68) [Substance P], the binding entry is listed as “no binding”.
